{"source": "PubChem BioAssay AID743121, NCATS | 2013", "assay": "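Genes whose silencing strengthens cell killing by camptothecin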 (primary screen)", "cell system": "MDA-MB-231 cells, a human breast cancer line", "reagents": "single siRNA against human genes, 20 nM siRNA (0.8 pmol per well)", "duration": "120 h (drug added 48 h after transfection, read 72 h later)", "conditions": "camptothecin 20 nM (about EC30) for 72 h; vehicle 0.1% DMSO in parallel plates", "measured": "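Cell viability by ATP luminescence (CellTiter-Glo) as % of non-targeting siRNA wells, and the log2 ratio of viability without drug over viability with camptothecin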", "reading the numbers": "log2 vehicle/camptothecin viability: higher = stronger sensitisation to camptothecin", "hit rule": "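Active genes have an RSA gene-level p-value below 0.001, computed from the ratios of their separate siRNAs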", "note": "This is an unselected part of about 26,000 reagents. In the full data, 167 (0.63%) were called active. 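Calls are per gene from RSA p-values that are not deposited; an individual active-marked siRNA can sensitise only weakly.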 Entries without a mark were called inactive. Reagents against one gene are numbered here. Further read-outs or replicates are left out here. No sequences are given here."}
{"gene":"FDPS","siRNA no.":1,"log2 vehicle/camptothecin viability":-0.0577}
{"gene":"FDPS","siRNA no.":2,"log2 vehicle/camptothecin viability":0.00499}
{"gene":"FDPS","siRNA no.":3,"log2 vehicle/camptothecin viability":0.317}
{"gene":"FDPS","siRNA no.":4,"log2 vehicle/camptothecin viability":-0.343}
{"gene":"SPEN","siRNA no.":1,"log2 vehicle/camptothecin viability":-0.177}
{"gene":"SPEN","siRNA no.":2,"log2 vehicle/camptothecin viability":-0.511}
{"gene":"SPEN","siRNA no.":3,"log2 vehicle/camptothecin viability":-0.107}
{"gene":"SPEN","siRNA no.":4,"log2 vehicle/camptothecin viability":-0.198}
{"gene":"GNA14","siRNA no.":1,"log2 vehicle/camptothecin viability":-0.0507}
{"gene":"GNA14","siRNA no.":2,"log2 vehicle/camptothecin viability":-0.432}
{"gene":"GNA14","siRNA no.":3,"log2 vehicle/camptothecin viability":0.022}
{"gene":"GNA14","siRNA no.":4,"log2 vehicle/camptothecin viability":-0.0213}
{"gene":"ROBO3","siRNA no.":1,"log2 vehicle/camptothecin viability":-0.32}
{"gene":"ROBO3","siRNA no.":2,"log2 vehicle/camptothecin viability":-0.516}
{"gene":"ROBO3","siRNA no.":3,"log2 vehicle/camptothecin viability":0.188}
{"gene":"ROBO3","siRNA no.":4,"log2 vehicle/camptothecin viability":-0.119}
{"gene":"UQCRH","siRNA no.":1,"log2 vehicle/camptothecin viability":-0.134}
{"gene":"UQCRH","siRNA no.":2,"log2 vehicle/camptothecin viability":-0.146}
{"gene":"UQCRH","siRNA no.":3,"log2 vehicle/camptothecin viability":-0.0233}
{"gene":"TUBB2A","siRNA no.":1,"log2 vehicle/camptothecin viability":-0.0164}
{"gene":"TUBB2A","siRNA no.":2,"log2 vehicle/camptothecin viability":-0.0253}
{"gene":"TUBB2A","siRNA no.":3,"log2 vehicle/camptothecin viability":0.317}
{"gene":"TUBB2A","siRNA no.":4,"log2 vehicle/camptothecin viability":0.0889}
{"gene":"RPA2","siRNA no.":1,"log2 vehicle/camptothecin viability":-0.334}
{"gene":"RPA2","siRNA no.":2,"log2 vehicle/camptothecin viability":-0.184}
{"gene":"RPA2","siRNA no.":3,"log2 vehicle/camptothecin viability":-0.178}
{"gene":"RPA2","siRNA no.":4,"log2 vehicle/camptothecin viability":0.527}
{"gene":"BMP5","siRNA no.":1,"log2 vehicle/camptothecin viability":-0.023}
{"gene":"BMP5","siRNA no.":2,"log2 vehicle/camptothecin viability":0.893}
{"gene":"BMP5","siRNA no.":3,"log2 vehicle/camptothecin viability":-0.338}
{"gene":"BMP5","siRNA no.":4,"log2 vehicle/camptothecin viability":-0.175}
{"gene":"KCNK17","siRNA no.":1,"log2 vehicle/camptothecin viability":0.247}
{"gene":"KCNK17","siRNA no.":2,"log2 vehicle/camptothecin viability":0.218}
{"gene":"KCNK17","siRNA no.":3,"log2 vehicle/camptothecin viability":-0.497}
{"gene":"KCNK17","siRNA no.":4,"log2 vehicle/camptothecin viability":-0.286}

An excerpt from the list above:
{"gene":"BMP5","siRNA no.":3,"log2 vehicle/camptothecin viability":-0.338}
{"gene":"BMP5","siRNA no.":4,"log2 vehicle/camptothecin viability":-0.175}
{"gene":"KCNK17","siRNA no.":1,"log2 vehicle/camptothecin viability":0.247}
{"gene":"KCNK17","siRNA no.":2,"log2 vehicle/camptothecin viability":0.218}
{"gene":"KCNK17","siRNA no.":3,"log2 vehicle/camptothecin viability":-0.497}
